Reference: patent publication US11643782B2, “Method for controlling growth of microorganisms and/or biofilms in an industrial process” (Kemira Oyj, priority 2017, dated 2023)
Some entries share one result that the patent states for a list of compounds. For at least one compound, name, drawing or mass did not settle the structure.

Tested on: Meiothermus silvanus biofilms
Experiment: Prevention of biofilm formation (96-microwell peg-lid plates, Crystal Violet staining)
Format: cell-based
Details: dosage of 0.2 mg/I active compound; test conditions identical to Example 1
Source text: Pure cultures of Meiothermus silvanus, a microbe species commonly found in paper machine biofilms (Ekman J, Journal of Industrial Microbiology & Biotechnology 34:203-211) and Pseudoxanthomonas taiwanensis, another species commonly found in paper machine environments (Desjardins, E & Beaulieu, C, Journal of Industrial Microbiology & Biotechnology 30:141-145) were used to study the efficacy of various chemicals to prevent biofilm formation.
Biofilm tests were done in either synthetic commercial R2-broth (Lab M Ltd, UK) or fibre-containing synthetic paper machine water, SPW (prepared according to Peltola, et al., J. Ind. Microbiol. Biotechnol. 2011, 38: 1719-1727) using 96-microwell plate wells with peg lids (Thermo Fischer Scientific Inc., USA). Plates were incubated at 45° C. with a rotary shaking (150 rpm) providing high flow in each well. […]
The amount of biofilm formed on the microwells and peg surfaces was quantified with a staining solution by adding 200 μl of 1% Crystal Violet (Merck Millipore KGaA, Germany) in methanol to each well and placing the peg-lid back on. […] The attached Crystal Violet was dissolved into ethanol and the absorbance at 595 nm was measured. The values shown in the following tables are average absorbance from 8 replicate wells and pegs.
All absorbance values in Examples 1-8 are given actual measured values. […]

Structure (SMILES)	Biofilm reduction effect
N#C/C=C/S(=O)(=O)c1ccc(C(F)(F)F)cc1 [Compound E, (2E)-3-[(4-trifluormethylphenyl)sulphonyl]-2-propenenitrile]	over 90%
N#C/C=C/S(=O)(=O)c1ccccc1 [Compound C, (2E)-3-phenylsulphonyl-2-propenenitrile]	over 90%
